Results: the supplement of paper PMC9135407
Where “and” joins values, the source holds several entries; their conditions need not be identical. Identical values can stand only once. Counter-ions that a name gives are not always drawn. ± gives the standard deviation of the averaged measurements. This is one part of the list. Plates or batches differ in their baseline, so values are only roughly comparable.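 Culture-activated primary human stellate myofibroblasts, where regained lipid droplets signal inactivation. Value: share of Hoechst-counted cells above a per-plate Bodipy cutoff, in duplicate wells, with DMSO negative and nortriptyline positive controls on each plate. Hits: a control-normalized score above the plate's top-tenth-percentile nortriptyline wells, or one of a plate's three best wells. Final well concentrations are not given.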

System: primary human hepatic stellate cells (donor 1)
Test: percent Bodipy-positive cells; higher = more lipid droplet accumulation
Conditions: 48 h
[1] = library stock concentration: 10 mM
[2] = library stock concentration: 1 mM
[3] = library stock concentration: 3.33 mM

**Q.** `COC(=O)c1ccccc1O` [Methyl salicylate] was tested. Which “percent Bodipy-positive cells” value (library stock concentration: 13.1 mM) did it give?
**A.** 10.9 ± 0.79%

**Q.** `CCCN(CCC)C(=O)C(CCC(=O)O)NC(=O)c1ccccc1` (centres undefined) [Proglumide] was tested. Which “percent Bodipy-positive cells” value did it give?
**A.** 16.3 ± 2%

**Q.** What about the “percent Bodipy-positive cells” value (library stock concentration: 6 mM) of the same compound?
**A.** 20.3 ± 3.2%

**Q.** What about the “percent Bodipy-positive cells” value [1] of the same compound?
**A.** 30.8% and 45%

**Q.** How did the “percent Bodipy-positive cells” value [2] turn out when `CCCCC/C=C\C/C=C\C/C=C\C/C=C\CCCC(=O)OCc1ccsc1` was run?
**A.** 8.96 ± 2%

**Q.** Which “percent Bodipy-positive cells” value [3] does the source give for `Nc1nc(N)c2nc(-c3cccc(O)c3)cnc2n1` here?
**A.** 5.67 ± 1.4%

**Q.** And the “percent Bodipy-positive cells” value [1]?
**A.** 10.2 ± 0.55%

**Q.** Which “percent Bodipy-positive cells” value does the source give for `CCN1C(=O)NC(c2ccccc2)C1=O` (centres undefined) [Ethotoin] here?
**A.** 10.6 ± 0.53%

**Q.** Which “percent Bodipy-positive cells” value [2] does the source give for `CCCCC/C=C/C/C=C/C/C=C/C/C=C/CCCC(=O)Oc1ccc2ccc(=O)oc2c1` [7-hydroxycoumarinyl Arachidonate] here?
**A.** 6.65 ± 2.7%

**Q.** With `COc1ccccc1N1CCN(CC(O)COc2cccc3ccccc23)CC1` (centres undefined) [Naftopidil 2HCl] as the compound, how does the “percent Bodipy-positive cells” value (library stock concentration: 5.1 mM) read?
**A.** 11.21 ± 0.037%

**Q.** How did the “percent Bodipy-positive cells” value [1] turn out when `COc1ccccc1N1CCN(CC(O)COc2cccc3ccccc23)CC1` (centres undefined) [Naftopidil hydrochloride] was run?
**A.** 29.6 ± 0.95%

**Q.** How did the “percent Bodipy-positive cells” value turn out when `COc1ccccc1N1CCN(CC(O)COc2cccc3ccccc23)CC1` (centres undefined) [Naftopidil dihydrochloride] was run?
**A.** 13.9 ± 0.73%

**Q.** What about the “percent Bodipy-positive cells” value [1] of the same compound?
**A.** 77.6 ± 2.7%

**Q.** How did the “percent Bodipy-positive cells” value [1] turn out when `COc1ccccc1N1CCN(CC(O)COc2cccc3ccccc23)CC1` (centres undefined) was run?
**A.** 37.1 ± 5.3%

**Q.** What does the source list for `COc1ccccc1N1CCN(CC(O)COc2cccc3ccccc23)CC1` (centres undefined) [Naftopidil DiHCl]?
**A.** percent Bodipy-positive cells [3]: 7.13 ± 0.57%; percent Bodipy-positive cells [1]: 34.6 ± 8.1%

**Q.** How did the “percent Bodipy-positive cells” value [3] turn out when `COc1ccccc1N1CCN(CC(O)COc2cccc3ccccc23)CC1` (centres undefined) [Naftopidil] was run?
**A.** 8.668 ± 0.0014%

**Q.** And the “percent Bodipy-positive cells” value [1]?
**A.** 22 ± 1.1%

**Q.** For `Cc1nnc(-c2ccc3occ(-c4ccc([S+](C)[O-])cc4)c3c2)o1` (centres undefined), which “percent Bodipy-positive cells” value [1] is on record?
**A.** 13.5 ± 0.22%

**Q.** With `CN1CCC(=C2c3ccccc3CC(=O)c3sccc32)CC1` [Ketotifen fumarate] as the compound, how does the “percent Bodipy-positive cells” value read?
**A.** 66.425 ± 0.023%

**Q.** What about the “percent Bodipy-positive cells” value (library stock concentration: 4.7 mM) of the same compound?
**A.** 56.8 ± 12%

**Q.** What about the “percent Bodipy-positive cells” value [1] of the same compound?
**A.** 65.5% and 50.6%

**Q.** With `CN1CCC(=C2c3ccccc3CC(=O)c3sccc32)CC1` [Ketotifen Fumarate] as the compound, how does the “percent Bodipy-positive cells” value [3] read?
**A.** 29.9 ± 11%

**Q.** And the “percent Bodipy-positive cells” value [1]?
**A.** 55.2 ± 3.1%

**Q.** With `CN1CCC(=C2c3ccccc3CC(=O)c3sccc32)CC1` as the compound, how does the “percent Bodipy-positive cells” value [1] read?
**A.** 63.01 ± 0.44%

**Q.** With `CC(C)(C)C(=O)OCOP(=O)(COCCn1cnc2c(N)ncnc21)OCOC(=O)C(C)(C)C` [Adefovir Dipivoxil] as the compound, how does the “percent Bodipy-positive cells” value [3] read?
**A.** 22.2 ± 8.7%

**Q.** What about the “percent Bodipy-positive cells” value [1] of the same compound?
**A.** 38.2 ± 3.3%

**Q.** For `O=C1Cc2c([nH]c3ccc([N+](=O)[O-])cc23)-c2ccccc2N1` [Alsterpaullone], which “percent Bodipy-positive cells” value [3] is on record?
**A.** 21.6 ± 1.1%

**Q.** How did the “percent Bodipy-positive cells” value turn out when `CC[C@@H](CC[C@@H](C)[C@H]1CC[C@H]2[C@@H]3CCC4C[C@@H](O)CC[C@]4(C)[C@H]3CC[C@]12C)C(C)C` (stereo partly drawn) [Beta-sistosterol] was run?
**A.** 11.8 ± 0.68%

**Q.** Which results are given for `CN1CCN(c2ccc3nc(-c4c(N)c5c(F)cccc5[nH]c4=O)[nH]c3c2)CC1` [Dovitinib (TKI-258, CHIR-258)]?
**A.** percent Bodipy-positive cells [3]: 95.5 ± 1.4%; percent Bodipy-positive cells [1]: 95.1 ± 1.9%

**Q.** Which “percent Bodipy-positive cells” value [1] does the source give for `CCN(CC)CCOCCOC(=O)C(CC)(CC)c1ccccc1.O=C(O)CC(O)(CC(=O)O)C(=O)O` here?
**A.** 93.2 ± 1.7%

**Q.** How did the “percent Bodipy-positive cells” value (library stock concentration: 80 uM) turn out when `O=S(=O)(c1cccc2c(I)cccc12)N1CCCNCC1` was run?
**A.** 8.74 ± 1.3%

**Q.** And the “percent Bodipy-positive cells” value (library stock concentration: 400 uM)?
**A.** 13 ± 4.2%

**Q.** And the “percent Bodipy-positive cells” value (library stock concentration: 2 mM)?
**A.** 30.4 ± 3.5%

**Q.** `O=S(=O)(c1cccc2c(I)cccc12)N1CCCNCC1` [ML-7, Hydrochloride] was tested. Which “percent Bodipy-positive cells” value [3] did it give?
**A.** 37.7 ± 0.67%

**Q.** `COc1cc(OC)c(C(=O)CCCN2CCCC2)c(OC)c1` [Buflomedil HCl] was tested. Which “percent Bodipy-positive cells” value [3] did it give?
**A.** 6.23 ± 1.6%

**Q.** And the “percent Bodipy-positive cells” value [1]?
**A.** 9.89 ± 1.6%

**Q.** With `COc1cc(OC)c(C(=O)CCCN2CCCC2)c(OC)c1` as the compound, how does the “percent Bodipy-positive cells” value [1] read?
**A.** 16.2 ± 5.8%
